# Reference: US11370801B2, “Pyrrolobenzodiazepine conjugates” (priority 2017, dated 2022)
# System: NCI-N87
# Assay: Therapeutic index: MTD in rat / MED in mouse efficacy model
# Type: in vivo
# Experimental: The therapeutic index of each ADC/drug linker was calculated using the following equation: TI=MTD in rat (mg/kg)/MED in mouse efficacy model (mg/kg)
row,Compound,TI (therapeutic index)
1,"COc1cc2c(cc1OCCCOc1cc3c(cc1OC)C(=O)N1CCC[C@H]1[C@H](O)N3C(=O)OCc1ccc(NC(=O)[C@H](C)NC(=O)[C@@H](NC(=O)CCOCCOCCOCCOCCOCCOCCOCCOCCNC(=O)CCN3C(=O)C=CC3=O)C(C)C)cc1)N=C[C@@H]1CCCN1C2=O [Compound 1, 4-((2S,5S)-37-(2,5-dioxo-2,5-dihydro-1H-pyrrol-1-yl)-5-isopropyl-2-methyl-4,7,35-trioxo-10,13,16,19,22,25,28,31-octaoxa-3,6,34-triazaheptatriacontanamido)benzyl(11S,11aS)-11-hydroxy-7-methoxy-8-(3-(((S)-7-methoxy-5-oxo-2,3,5,11a-tetrahydro-1H-pyrrolo[2,1-c][1,4]benzodiazepin-8-yl)oxy)propoxy)-5-oxo-2,3,11,11a-tetrahydro-1H-pyrrolo[2,1-c][1,4]benzodiazepine-10(5H)-carboxylate]",4.2
2,"COc1cc2c(cc1OCc1cccc(COc3cc4c(cc3OC)C(=O)N3CCC[C@H]3[C@H](O)N4C(=O)OCc3ccc(NC(=O)[C@H](C)NC(=O)[C@@H](NC(=O)CCOCCOCCOCCOCCOCCOCCOCCOCCNC(=O)CCN4C(=O)C=CC4=O)C(C)C)cc3)c1)N=C[C@@H]1CCCN1C2=O [Compound 3, 4-((2S,5S)-37-(2,5-dioxo-2,5-dihydro-1H-pyrrol-1-yl)-5-isopropyl-2-methyl-4,7,35-trioxo-10,13,16,19,22,25,28,31-octaoxa-3,6,34-triazaheptatriacontanamido)benzyl (11S,11aS)-11-hydroxy-7-methoxy-8-((3-((((S)-7-methoxy-5-oxo-2,3,5,11a-tetrahydro-1H-benzo[e]pyrrolo[1,2-a][1,4]diazepin-8-yl)oxy)methyl)benzyl)oxy)-5-oxo-2,3,11,11a-tetrahydro-1H-benzo[e]pyrrolo[1,2-a][1,4]diazepine-10(5H)-carboxylate]",4
3,"COc1cc2c(cc1OCCCOc1cc3c(cc1OC)C(=O)N1CCC[C@H]1[C@H](O)N3C(=O)OCc1ccc(NC(=O)[C@H](C)NC(=O)[C@@H](NC(=O)CCOCCOCCOCCOCCOCCOCCOCCOCCNC(=O)CCN3C(=O)C=CC3=O)C(C)C)cc1)N=C[C@@H]1CCCN1C2=O [Compound 2, 4-((2S,5S)-37-(2,5-dioxo-2,5-dihydro-1H-pyrrol-1-yl)-5-isopropyl-2-methyl-4,7,35-trioxo-10,13,16,19,22,25,28,31-octaoxa-3,6,34-triazaheptatriacontanamido)benzyl(11S,11aS)-11-hydroxy-7-methoxy-8-(3-(((S)-7-methoxy-5-oxo-2,3,5,11a-tetrahydro-1H-pyrrolo[2,1-c][1,4]benzodiazepin-8-yl)oxy)propoxy)-5-oxo-2,3,11,11a-tetrahydro-1H-pyrrolo[2,1-c][1,4]benzodiazepine-10(5H)-carboxylate]",4
